{"source": "patent US20060088472A1", "about": "“E7 regulation of p21 cip1 through akt” (priority 2002, published 2006)", "system": "NIH3T3 cells stably expressing the RafAR fusion protein", "assay": "Cell cycle analysis (BrdU incorporation / propidium iodide) in RafAR-expressing NIH3T3 cells", "format": "cell-based, murine", "details": "1.0 μM R1881 30 hours, LY294002 50, 100, 200 μM", "description": "(A) NIH3T3 cells stably expressing the RafAR fusion protein were infected with amphotrophic retroviruses expressing HPV-16 E7 (E7) or empty vector (Babe). Lysates were prepared and 100 μg of protein was resolved by 15% SDS-PAGE, transferred to nitrocellulose membrane, and probed with a monoclonal antibody directed against HPV-16 E7. (B and C) Pools of Babe- or E7-expressing cells growing in DMEM plus 10% NCS were treated with 0.02% ethanol (−) or 1.0 μM R1881 (+) for 30 hours and pulsed with BrdU for 30 minutes. Cells were trypsinized, fixed in 70% ethanol, and stained with propidium iodide (PI) for detection of total DNA content (B) and with α-BrdU-FITC for detection of DNA synthesis (C).\n(A) E7-expressing cells were treated for 30 hours with 1.0 μM R1881 in the absence or presence of increasing concentrations of LY294002 (50 μM, 100 μM, 200 μM), an inhibitor of PI-3K activity. DNA synthesis was measured via BrdU incorporation. (B) E7-expressing cells were treated with 1.0 uM R1881 in the presence or absence of 100 uM LY294002, stained with p21^Cip1-specific antibody, and quantitated for nuclear p21^Cip1 localization as in FIG. 7. […] Cells were stained with α-BrdU, and GFP-positive cells were scored for BrdU incorporation via indirect immunofluorescence. Percentages of BrdU incorporation were calculated by defining the number obtained from vehicle-treated cells as 100%. […]", "note": "For at least one compound, name, drawing or mass did not settle the structure.", "data": [{"smiles": "O=c1cc(N2CCOCC2)oc2c(-c3ccccc3)cccc12", "note": "[LY294002]", "values": [{"measurement": "cell cycle progression of RafAR-induced, E7-expressing cells (DNA synthesis via BrdU incorporation)", "value": "diminished"}]}]}
